Measured values: PMC6668832, “Structural basis for recognition of the tumor suppressor protein PTPN14 by the oncoprotein E7 of human papillomavirus” (PLoS Biology, 2019)
Read-outs that look alike come from different tables or passages of the source. No constants are given. Whether binding was seen depends on the method and setting. For some assays here: Binding seen in cells or lysates may run through a third protein. Some binding calls cover weakened binding; strength is not graded here. For some assays here: Tags and fused reporters may be left off the sequences shown.

By UniProt entry, the sequences of proteins in these tests, tags left out. Residues count along the entry.
UniProt P06788, residues 54-105: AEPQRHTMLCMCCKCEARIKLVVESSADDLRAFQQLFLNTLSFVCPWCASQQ
UniProt P46937: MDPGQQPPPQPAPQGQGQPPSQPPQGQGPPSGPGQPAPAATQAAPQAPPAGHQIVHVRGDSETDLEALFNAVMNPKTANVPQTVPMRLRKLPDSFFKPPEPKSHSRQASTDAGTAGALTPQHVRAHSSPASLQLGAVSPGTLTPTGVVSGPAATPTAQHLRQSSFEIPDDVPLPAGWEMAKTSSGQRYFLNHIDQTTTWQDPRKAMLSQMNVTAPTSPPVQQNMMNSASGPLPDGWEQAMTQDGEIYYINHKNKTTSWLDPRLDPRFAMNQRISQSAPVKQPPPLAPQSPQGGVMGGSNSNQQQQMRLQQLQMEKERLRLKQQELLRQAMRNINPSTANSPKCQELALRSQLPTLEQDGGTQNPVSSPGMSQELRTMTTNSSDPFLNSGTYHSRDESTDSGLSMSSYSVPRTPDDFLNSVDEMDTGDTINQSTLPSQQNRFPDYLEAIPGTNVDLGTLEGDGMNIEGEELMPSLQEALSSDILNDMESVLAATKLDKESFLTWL
UniProt P26045, residues 628-913: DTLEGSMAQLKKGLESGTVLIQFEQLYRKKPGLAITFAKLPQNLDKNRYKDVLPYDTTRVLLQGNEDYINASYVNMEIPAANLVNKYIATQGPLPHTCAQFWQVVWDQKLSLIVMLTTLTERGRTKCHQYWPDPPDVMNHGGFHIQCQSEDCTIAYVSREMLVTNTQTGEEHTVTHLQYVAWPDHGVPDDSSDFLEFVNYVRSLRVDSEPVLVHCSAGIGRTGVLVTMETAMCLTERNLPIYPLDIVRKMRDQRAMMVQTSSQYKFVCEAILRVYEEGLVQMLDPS
UniProt P23469, residues 107-398: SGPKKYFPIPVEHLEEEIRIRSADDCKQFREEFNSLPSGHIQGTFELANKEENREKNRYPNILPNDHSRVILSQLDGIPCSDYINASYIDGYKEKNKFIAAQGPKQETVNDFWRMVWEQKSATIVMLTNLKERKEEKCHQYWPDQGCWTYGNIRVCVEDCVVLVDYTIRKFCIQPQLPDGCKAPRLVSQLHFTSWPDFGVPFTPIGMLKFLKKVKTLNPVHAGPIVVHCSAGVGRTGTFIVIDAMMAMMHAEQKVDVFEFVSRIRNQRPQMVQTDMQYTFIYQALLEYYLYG
UniProt Q13332, residues 1367-1948: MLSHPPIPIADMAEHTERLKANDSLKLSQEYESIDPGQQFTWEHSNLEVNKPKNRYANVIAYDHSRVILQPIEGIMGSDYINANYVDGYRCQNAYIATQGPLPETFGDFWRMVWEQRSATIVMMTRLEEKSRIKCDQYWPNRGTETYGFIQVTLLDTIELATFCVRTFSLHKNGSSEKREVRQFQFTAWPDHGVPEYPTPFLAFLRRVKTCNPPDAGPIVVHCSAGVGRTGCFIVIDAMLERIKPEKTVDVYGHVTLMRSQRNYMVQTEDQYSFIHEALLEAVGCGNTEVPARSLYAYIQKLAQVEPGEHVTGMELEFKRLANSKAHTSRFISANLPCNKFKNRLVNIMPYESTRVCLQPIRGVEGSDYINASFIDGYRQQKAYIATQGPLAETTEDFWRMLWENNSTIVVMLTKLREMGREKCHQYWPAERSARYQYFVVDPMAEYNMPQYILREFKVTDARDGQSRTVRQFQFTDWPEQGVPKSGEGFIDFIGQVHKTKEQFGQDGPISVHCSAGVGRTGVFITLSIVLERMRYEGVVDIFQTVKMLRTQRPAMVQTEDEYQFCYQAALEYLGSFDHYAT

Legend:
[1] = target: MBP-tagged HPV18 E7 C-terminal domain (residues 54–105) (human papillomavirus 18 (HPV18)) (UniProt P06788); experiment: ITC; 25 °C, VP-ITC; PTP domain titrated into MBP-tagged HPV18 E7 (0.2 mM into 10 μM in Fig 1B); 20 mM Tris-HCl pH 7.5, 100 mM NaCl, 10 mM β-mercaptoethanol; one-to-one model; triplicate; both purified
[2] = target: T1, Flag-tagged LATS1 (UniProt O95835); experiment: co-IP; 293T cells transiently expressing wild-type or SQA mutant PTPN14 with Flag-tagged YAP or LATS1; coimmunoprecipitation and immunoblotting
T1 sequence: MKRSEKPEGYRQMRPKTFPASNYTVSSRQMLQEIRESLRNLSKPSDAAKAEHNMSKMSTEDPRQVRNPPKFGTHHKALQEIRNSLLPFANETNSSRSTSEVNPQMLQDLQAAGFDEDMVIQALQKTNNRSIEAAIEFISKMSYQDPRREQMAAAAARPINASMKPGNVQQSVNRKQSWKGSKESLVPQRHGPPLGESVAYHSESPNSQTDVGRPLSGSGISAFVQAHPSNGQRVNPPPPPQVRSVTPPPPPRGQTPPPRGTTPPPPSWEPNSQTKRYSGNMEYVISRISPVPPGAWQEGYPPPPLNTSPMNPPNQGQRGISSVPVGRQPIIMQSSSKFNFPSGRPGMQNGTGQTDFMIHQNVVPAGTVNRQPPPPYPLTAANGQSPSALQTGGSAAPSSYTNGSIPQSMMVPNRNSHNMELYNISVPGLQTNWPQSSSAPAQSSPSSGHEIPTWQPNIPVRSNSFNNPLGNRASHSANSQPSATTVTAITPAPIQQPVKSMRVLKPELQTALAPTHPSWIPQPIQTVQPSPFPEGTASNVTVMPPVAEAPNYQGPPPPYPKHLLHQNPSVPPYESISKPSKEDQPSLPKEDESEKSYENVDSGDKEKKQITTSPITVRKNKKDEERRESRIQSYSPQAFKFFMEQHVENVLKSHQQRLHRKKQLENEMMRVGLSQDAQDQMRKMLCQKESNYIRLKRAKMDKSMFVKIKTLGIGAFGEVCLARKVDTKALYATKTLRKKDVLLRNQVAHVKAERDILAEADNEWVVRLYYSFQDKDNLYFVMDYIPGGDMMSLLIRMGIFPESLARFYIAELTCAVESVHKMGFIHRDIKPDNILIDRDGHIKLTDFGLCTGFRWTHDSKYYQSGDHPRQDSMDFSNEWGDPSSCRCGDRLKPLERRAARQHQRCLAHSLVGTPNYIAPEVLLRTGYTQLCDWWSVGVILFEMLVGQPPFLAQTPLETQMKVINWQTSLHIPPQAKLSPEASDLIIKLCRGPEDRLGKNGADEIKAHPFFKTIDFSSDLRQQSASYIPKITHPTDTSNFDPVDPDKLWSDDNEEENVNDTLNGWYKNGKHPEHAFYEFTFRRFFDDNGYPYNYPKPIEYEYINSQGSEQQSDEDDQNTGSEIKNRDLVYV

[3] = target: MBP-tagged HPV18 E7 C-terminal domain (residues 54–105) (human papillomavirus 18 (HPV18)) (UniProt P06788); experiment: ITC; 25 °C, VP-ITC; PTP domain titrated into MBP-tagged HPV18 E7 (0.2 mM into 10 μM in Fig 1B); 20 mM Tris-HCl pH 7.5, 100 mM NaCl, 10 mM β-mercaptoethanol; one-to-one model; triplicate; both purified; remark: listed apart in the source
[4] = target: Flag-tagged YAP (UniProt P46937); experiment: co-IP; 293T cells transiently expressing wild-type or SQA mutant PTPN14 with Flag-tagged YAP or LATS1; coimmunoprecipitation and immunoblotting

## PTP domain of PTPN3 (residues 628–913) (from UniProt P26045 628-913) (domain or fragment)
[1]
  binding: no binding

## PTP domain of PTPε (residues 107–398) (from UniProt P23469 107-398) (domain or fragment)
[1]
  binding: no binding

## PTP domain of PTPσ (residues 1367–1948) (from UniProt Q13332 1367-1948) (domain or fragment)
[1]
  binding: no binding

## PTPN14 construct containing F1044S∙G1055Q∙E1095A mutations (cellular) (from UniProt Q15678 1-1187)
[2]
  binding: binds

B1: PTP domain of PTP1B (residues 1–321) (domain or fragment, UniProt P18031 1-321)
chain: MEMEKEFEQIDKSGSWAAIYQDIRHEASDFPCRVAKLPKNKNRNRYRDVSPFDHSRIKLHQEDNDYINASLIKMEEAQRSYILTQGPLPNTCGHFWEMVWEQKSRGVVMLNRVMEKGSLKCAQYWPQKEEKEMIFEDTNLKLTLISEDIKSYYTVRQLELENLTTQETREILHFHYTTWPDFGVPESPASFLNFLFKVRESGSLSPEHGPVVVHCSAGIGRSGTFCLADTCLLLMDKRKDPSSVDIKKVLLEMRKFRMGLIQTADQLRFSYLAVIEGAKFIMGDSSVQDQWKELSHEDLEPPPEHIPPPPRPPKRILEPHN
[3]
  binding: no binding

B2: PTP domain of PTPN14 containing the F1044S∙G1055Q∙E1095A mutation (domain or fragment, UniProt Q15678 886-1187)
chain: VDATRVPMDERFRTLKKKLEEGMVFTEYEQIPKKKANGIFSTAALPENAERSRIREVVPYEENRVELIPTKENNTGYINASHIKVVVGGAEWHYIATQGPLPHTCHDFWQMVWEQGVNVIAMVTAEEEGGRTKSHRYWPKLGSKHSSATYGKFKVTTKSRTDSVCYATTQLKVKHLLSGQERTVWHLQYTDWPDHGCPEDVQGFLSYLEAIQSVRRHTNSMLEGTKNRHPPIVVHCSAGVGRTGVLILSELMIYCLEHNEKVEVPMMLRLLREQRMFMIQTIAQYKFVYQVLIQFLQNSRLI
[3]
  binding: no binding

B3: wild-type PTPN14 (pcDNA3-V5-PTPN14-wild type) (protein, UniProt Q15678 1-1187)
chain: MPFGLKLRRTRRYNVLSKNCFVTRIRLLDSNVIECTLSVESTGQECLEAVAQRLELRETHYFGLWFLSKSQQARWVELEKPLKKHLDKFANEPLLFFGVMFYVPNVSWLQQEATRYQYYLQVKKDVLEGRLRCTLDQVIRLAGLAVQADFGDYNQFDSQDFLREYVLFPMDLALEEAVLEELTQKVAQEHKAHSGILPAEAELMYINEVERLDGFGQEIFPVKDNHGNCVHLGIFFMGIFVRNRIGRQAVIYRWNDMGNITHNKSTILVELINKEETALFHTDDIENAKYISRLFATRHKFYKQNKICTEQSNSPPPIRRQPTWSRSSLPRQQPYILPPVHVQCGEHYSETHTSQDSIFHGNEEALYCNSHNSLDLNYLNGTVTNGSVCSVHSVNSLNCSQSFIQASPVSSNLSIPGSDIMRADYIPSHRHSAIIVPSYRPTPDYETVMRQMKRGILHTDSQSQSLRNLNIINTHAYNQPEDLVYSQPEMRERHPYTVPYGPQGVYSNKLVSPSDQRNPKNNVVPSKPGASAISHTVSTPELANMQLQGSHNYSTAHMLKNYLFRPPPPYPRPRPATSTPDLASHRHKYVSGSSPDLVTRKVQLSVKTFQEDSSPVVHQSLQEVSEPLTATKHHGTVNKRHSLEVMNSMVRGMEAMTLKSLHLPMARRNTLREQGPPEEGSGSHEVPQLPQYHHKKTFSDATMLIHSSESEEEEEEAPESVPQIPMLREKMEYSAQLQAALARIPNKPPPEYPGPRKSVSNGALRQDQASLPPAMARARVLRHGPAKAISMSRTDPPAVNGASLGPSISEPDLTSVKERVKKEPVKERPVSEMFSLEDSIIEREMMIRNLEKQKMAGLEAQKRPLMLAALNGLSVARVSGREENRVDATRVPMDERFRTLKKKLEEGMVFTEYEQIPKKKANGIFSTAALPENAERSRIREVVPYEENRVELIPTKENNTGYINASHIKVVVGGAEWHYIATQGPLPHTCHDFWQMVWEQGVNVIAMVTAEEEGGRTKSHRYWPKLGSKHSSATYGKFKVTTKFRTDSVCYATTGLKVKHLLSGQERTVWHLQYTDWPDHGCPEDVQGFLSYLEEIQSVRRHTNSMLEGTKNRHPPIVVHCSAGVGRTGVLILSELMIYCLEHNEKVEVPMMLRLLREQRMFMIQTIAQYKFVYQVLIQFLQNSRLI
[2]
  binding: binds
[4]
  binding: binds
